Reference: PubChem BioAssay AID504786 (Drosophila RNAi Screening Center, 2011)
In all, the deposit lists about 21,000 reagents; shown is an unselected part of those that have a named target and a result. 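Primary screen; positive scores mean lost reporter signal, so the sign may be inverted from the usual convention.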 Reagents against one gene are numbered here. A plus sign joins genes that one reagent is predicted to hit.

Assay: 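Fly genes required for HIF-dependent transcription when hypoxia is mimicked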 (primary screen)
Cells: Drosophila S2 cells with a stable HIF luciferase reporter
Reagent: long dsRNA against Drosophila genes, about 0.2 µg dsRNA per well of a 384-well plate
Time to read-out: three days of knock-down, then 20 h of DFO before reading
Treatment: desferrioxamine (DFO) at 100 µM, an iron chelator that mimics hypoxia, for 20 h
Detection: 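HIF reporter luminescence in cells given 100 µM DFO for 20 h, using the mouse ldh-a hypoxia-response element, scored as per-plate z-scores; higher means greater loss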
Direction: z-score: higher = stronger loss of HIF reporter signal

no.	Gene	reagent no.	z-score, replicate 1	z-score, replicate 2	z-score, replicate 3	z-score, replicate 4
1	dop (GeneID 39686)	1	-0.2	-0.5		
2	metro (GeneID 36176)	1	-0.3	-0.4		
3	metro (GeneID 36176)	2	-0.1	-0.1		
4	CG10418 (GeneID 39408)	1	0	0.8		
5	HIPP1 (GeneID 40302)	1	-0.4	-0.6		
6	ncm (GeneID 35099)	1	7.9	3.8		
7	Ir94h (GeneID 42769)	1	-0.4	-0.4		
8	CG2157 (GeneID 32018)	1	-0.2	-0.6		
9	fd96Cb (GeneID 43011)	1	-0.1	0		
10	Syx7 (GeneID 36173)	1	-0.4	-0.4		
11	RpL13 (GeneID 34329)	1	4	8.8		
12	CG13339 (GeneID 36528)	1	-0.4	-0.5		
13	CG3402 (GeneID 38077)	1	-0.2	-0.1		
14	viaf (GeneID 39364)	1	-0.4	-0.5		
15	CG31688 (GeneID 35314)	1	-0.1	0		
16	CG16739 (GeneID 37307)	1	0.4	1.1		
17	CG15650 (GeneID 37373)	1	-0.4	-0.6		
18	CG16790 (GeneID 41155)	1	-0.4	-0.7		
19	CG10337 (GeneID 35247)	1	-0.1	-0.1		
20	Cyp304a1 (GeneID 41586)	1	-0.1	0		
21	CG6675 (GeneID 35439)	1	-0.3	-0.4		
22	CG7924 (GeneID 39574)	1	-0.3	-0.4		
23	YL-1 (GeneID 34516)	1	-0.2	-0.4		
24	CG3690 (GeneID 31047)	1	-0.3	-0.3		
25	CG3690 (GeneID 31047)	2	-0.3	-0.3		
26	Krn (GeneID 326198)	1	0.4	0.2		
27	CG11458 (GeneID 50110)	1	-0.1	-0.2		
28	CR46300 (GeneID 3885581)	1	-0.1	0.5		
29	CG30492 (retired record) + M7BP	1	-0.2	-0.1		
30	CG30492 (retired record) + M7BP	2	-0.4	-0.4		
31	CG30492 (retired record) + M7BP	3	0	-0.2		
32	CG30492 (retired record) + M7BP	4	-0.3	-0.4		
33	CG30492 (retired record) + M7BP	5	-0.3	-0.4		
34	PolE4 (GeneID 37560)	1	-0.2	-0.1		
35	Nepl10 (GeneID 36366)	1	-0.3	-0.3		
36	Agpat3 (GeneID 39820)	1	-0.3	-0.2		
37	CAH13 (GeneID 36126)	1	-0.2	-0.5		
38	CG3473 (GeneID 34849)	1	-0.2	-0.4		
39	fkh (GeneID 43383)	1	-0.4	0		
40	CG14435 (GeneID 31628)	1	0.4	-0.4		
41	CG18473 (GeneID 41116)	1	-0.2	-0.2		
42	Ilp1 (GeneID 39149)	1	-0.3	-0.3		
43	Hand (GeneID 34379)	1	-0.2	-0.4		
44	Obp56d (GeneID 37266)	1	-0.3	-0.8		
45	CG9372 (GeneID 40137)	1	0	0		
46	CG5334 (GeneID 32402)	1	-0.3	-0.8		
47	pasi1 (GeneID 42139)	1	-0.6	-1.1	0.1	-0.1
48	AlaRS (GeneID 34156)	1	-0.1	-0.3		
49	CG5639 (GeneID 43314)	1	-0.1	0		
50	Neu2 (GeneID 40375)	1	-0.3	-0.3		

Quoted from the entries so far (12 entries):
no.	Gene	reagent no.	z-score, replicate 1	z-score, replicate 2	z-score, replicate 3	z-score, replicate 4
23	YL-1 (GeneID 34516)	1	-0.2	-0.4		
24	CG3690 (GeneID 31047)	1	-0.3	-0.3		
25	CG3690 (GeneID 31047)	2	-0.3	-0.3		
26	Krn (GeneID 326198)	1	0.4	0.2		
27	CG11458 (GeneID 50110)	1	-0.1	-0.2		
28	CR46300 (GeneID 3885581)	1	-0.1	0.5		
29	CG30492 (retired record) + M7BP	1	-0.2	-0.1		
30	CG30492 (retired record) + M7BP	2	-0.4	-0.4		
31	CG30492 (retired record) + M7BP	3	0	-0.2		
32	CG30492 (retired record) + M7BP	4	-0.3	-0.4		
33	CG30492 (retired record) + M7BP	5	-0.3	-0.4		
34	PolE4 (GeneID 37560)	1	-0.2	-0.1		

Further results:
no.	Gene	reagent no.	z-score, replicate 1	z-score, replicate 2	z-score, replicate 3	z-score, replicate 4
51	sprt (GeneID 246397)	1	-0.3	-0.1		
52	RpL19 (GeneID 37995)	1	10.1	7.9		
53	hng1 (GeneID 37412)	1	-0.3	-0.4		
54	PPYR1 (GeneID 32453)	1	-0.2	-0.4		
55	Desi (GeneID 41292)	1	-0.1	-0.4		
56	Cog1 (GeneID 41479)	1	-0.2	-0.2		
57	Fpgs2 (GeneID 326159)	1	-0.2	-0.3		
58	CG10734 (GeneID 36787)	1	-0.3	-0.4		
59	Toll-9 (GeneID 40245)	1	-0.2	-0.4		
60	Cbp20 (GeneID 42166)	1	1.9	3		
61	CG32720 (GeneID 318170)	1	-0.4	-0.3		
62	Vps45 (GeneID 41153)	1	-0.4	0.1		
63	Tre1 (GeneID 140439)	1	-0.3	0.5		
64	fl(2)d (GeneID 36527)	1	-0.2	-0.6		
65	MFS15 (GeneID 37168)	1	-0.2	0		
66	RpL13A (GeneID 40687)	1	3.5	3.5		
67	CG31109 (GeneID 43001)	1	-0.4	-0.9		
68	Rab2 (GeneID 35577)	1	0.1	0.1		
69	CG12395 (GeneID 32571)	1	-0.4	-0.8		
70	CG6230 (GeneID 34546)	1	-0.3	-0.5		
71	SERCA (GeneID 49297)	1	-0.5	-1.6		
72	VhaAC39-1 (GeneID 31342)	1	-0.4	-1		
73	Kif19A (GeneID 41717)	1	1.6	0.8		
74	dsb (GeneID 38252)	1	1.8	0.2		
75	dsb (GeneID 38252)	2	-0.2	-0.4		
76	ND-75 (GeneID 31762)	1	0	-0.3		
77	CG5509 (GeneID 41539)	1	-0.2	-0.5		
78	CG3505 (GeneID 41777)	1	-0.3	-0.5		
79	CG34231 (GeneID 5740811)	1	-0.1	-0.2		
80	AdamTS-B (GeneID 31490)	1	-0.4	-0.5		
81	CG18549 (GeneID 41538)	1	-0.3	-0.5		
82	ush (GeneID 33225)	1	-0.4	0.5		
83	epsilonCOP (GeneID 33908)	1	-0.4	-0.4		
